Experimental data from publication PMC4991852, “The Sac3 TPR-like region in the Saccharomyces cerevisiae TREX-2 complex is more extensive but independent of the CID region” (Journal of Structural Biology, 2016).
No constants are given. Whether binding was seen depends on the method and setting. For some of these results: In cells and extracts the contact can be indirect. Some binding calls cover weakened binding; strength is not graded here. For some of these results: Tags and fused reporters may be left off the sequences shown.

What was measured:
[1] = biological target: T1, Sac3 (residues 1-805), GST removed (S. cerevisiae) (UniProt P46674); experiment: crystal structure; scTREX-2^ΔC at 16.5 mg/ml, 20% PEG 3350, 0.2 M Mg formate, crystals grew over 2 weeks; 4.9 Å; crystals probably hold a proteolytic fragment (Sac3 up to about residue 555, Thp1, Sem1); both purified
T1 sequence (chain, minor phosphorylation, Ser71, Ser102, Ser592, Ser600, Ser684 (mass spectrometry)): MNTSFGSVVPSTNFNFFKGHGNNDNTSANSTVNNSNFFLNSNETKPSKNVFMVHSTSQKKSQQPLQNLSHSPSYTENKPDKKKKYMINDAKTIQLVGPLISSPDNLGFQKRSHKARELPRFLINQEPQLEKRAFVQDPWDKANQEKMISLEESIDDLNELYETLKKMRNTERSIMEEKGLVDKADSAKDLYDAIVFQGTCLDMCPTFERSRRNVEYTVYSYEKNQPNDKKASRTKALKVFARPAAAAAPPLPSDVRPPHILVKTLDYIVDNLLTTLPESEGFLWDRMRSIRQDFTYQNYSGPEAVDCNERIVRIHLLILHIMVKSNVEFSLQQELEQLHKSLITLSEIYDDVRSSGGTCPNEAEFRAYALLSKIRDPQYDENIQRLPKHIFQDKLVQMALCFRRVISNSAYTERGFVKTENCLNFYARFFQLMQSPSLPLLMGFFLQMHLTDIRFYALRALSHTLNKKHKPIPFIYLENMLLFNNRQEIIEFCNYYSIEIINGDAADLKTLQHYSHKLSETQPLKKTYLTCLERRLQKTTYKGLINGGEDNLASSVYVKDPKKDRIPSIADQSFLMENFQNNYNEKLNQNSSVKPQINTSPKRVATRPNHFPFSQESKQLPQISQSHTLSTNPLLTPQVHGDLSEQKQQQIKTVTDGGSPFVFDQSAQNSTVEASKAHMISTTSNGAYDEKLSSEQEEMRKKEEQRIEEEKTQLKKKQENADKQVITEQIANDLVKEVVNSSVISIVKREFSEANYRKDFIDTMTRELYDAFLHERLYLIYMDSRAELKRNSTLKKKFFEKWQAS

[2] = biological target: T1, Sac3 (residues 1-805), GST removed (S. cerevisiae); experiment: cryo-EM structure; purified co-expressed TREX-2^1-805 complex at ~75 nM on graphene oxide coated holey carbon grids; 5.3 Å reconstruction of the M-region only; both purified
[3] = biological target: T2, full-length Sac3 (residues 1–1301) (S. cerevisiae) (UniProt P46674); experiment: pull-down; GST-Sac3 co-expressed with Thp1, Sem1, Cdc31 and Sus1 in Sf9 from a single baculovirus; clarified lysate on glutathione Sepharose 4B, 50 mM Tris pH 8.0, 500 mM NaCl, 5 mM DTT; eluted by TEV cleavage; Coomassie-stained SDS-PAGE
T2 sequence: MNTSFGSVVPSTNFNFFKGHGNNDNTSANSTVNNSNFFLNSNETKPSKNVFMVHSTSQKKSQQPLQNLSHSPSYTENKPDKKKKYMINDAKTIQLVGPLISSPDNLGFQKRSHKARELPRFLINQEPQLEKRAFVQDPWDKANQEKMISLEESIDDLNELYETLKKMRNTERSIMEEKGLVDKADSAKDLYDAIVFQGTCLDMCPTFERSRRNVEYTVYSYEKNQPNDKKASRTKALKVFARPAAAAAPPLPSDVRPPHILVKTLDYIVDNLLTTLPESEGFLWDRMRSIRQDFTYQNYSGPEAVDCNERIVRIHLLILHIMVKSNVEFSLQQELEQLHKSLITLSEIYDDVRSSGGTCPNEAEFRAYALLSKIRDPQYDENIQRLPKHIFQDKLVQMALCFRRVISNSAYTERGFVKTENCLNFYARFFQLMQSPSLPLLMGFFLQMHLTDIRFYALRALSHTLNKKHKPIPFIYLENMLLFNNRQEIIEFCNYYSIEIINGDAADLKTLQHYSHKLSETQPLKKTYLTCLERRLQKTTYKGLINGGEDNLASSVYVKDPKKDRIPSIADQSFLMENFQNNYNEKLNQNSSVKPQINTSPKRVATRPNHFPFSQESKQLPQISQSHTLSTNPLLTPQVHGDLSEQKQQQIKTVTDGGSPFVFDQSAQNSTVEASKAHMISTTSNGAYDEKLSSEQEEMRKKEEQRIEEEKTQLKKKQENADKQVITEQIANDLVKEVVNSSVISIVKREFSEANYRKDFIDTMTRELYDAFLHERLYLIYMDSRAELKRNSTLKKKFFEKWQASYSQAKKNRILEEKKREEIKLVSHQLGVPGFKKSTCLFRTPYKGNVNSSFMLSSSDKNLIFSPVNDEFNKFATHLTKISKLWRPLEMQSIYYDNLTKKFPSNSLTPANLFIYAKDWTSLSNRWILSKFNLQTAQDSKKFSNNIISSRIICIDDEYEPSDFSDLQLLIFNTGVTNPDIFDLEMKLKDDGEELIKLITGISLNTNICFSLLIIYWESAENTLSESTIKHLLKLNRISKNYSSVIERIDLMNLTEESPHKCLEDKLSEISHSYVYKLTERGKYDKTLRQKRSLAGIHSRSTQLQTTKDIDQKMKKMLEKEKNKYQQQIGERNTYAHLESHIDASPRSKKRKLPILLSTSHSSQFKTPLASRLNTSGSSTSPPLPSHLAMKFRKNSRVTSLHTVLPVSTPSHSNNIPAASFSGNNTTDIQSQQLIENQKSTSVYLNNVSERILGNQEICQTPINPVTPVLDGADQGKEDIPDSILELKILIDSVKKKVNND

[4] = biological target: T3, GST-Sac3 (residues 1-805) (S. cerevisiae) (UniProt P46674); experiment: as above
T3 sequence (chain, minor phosphorylation, Ser71, Ser102, Ser592, Ser600, Ser684 (mass spectrometry)): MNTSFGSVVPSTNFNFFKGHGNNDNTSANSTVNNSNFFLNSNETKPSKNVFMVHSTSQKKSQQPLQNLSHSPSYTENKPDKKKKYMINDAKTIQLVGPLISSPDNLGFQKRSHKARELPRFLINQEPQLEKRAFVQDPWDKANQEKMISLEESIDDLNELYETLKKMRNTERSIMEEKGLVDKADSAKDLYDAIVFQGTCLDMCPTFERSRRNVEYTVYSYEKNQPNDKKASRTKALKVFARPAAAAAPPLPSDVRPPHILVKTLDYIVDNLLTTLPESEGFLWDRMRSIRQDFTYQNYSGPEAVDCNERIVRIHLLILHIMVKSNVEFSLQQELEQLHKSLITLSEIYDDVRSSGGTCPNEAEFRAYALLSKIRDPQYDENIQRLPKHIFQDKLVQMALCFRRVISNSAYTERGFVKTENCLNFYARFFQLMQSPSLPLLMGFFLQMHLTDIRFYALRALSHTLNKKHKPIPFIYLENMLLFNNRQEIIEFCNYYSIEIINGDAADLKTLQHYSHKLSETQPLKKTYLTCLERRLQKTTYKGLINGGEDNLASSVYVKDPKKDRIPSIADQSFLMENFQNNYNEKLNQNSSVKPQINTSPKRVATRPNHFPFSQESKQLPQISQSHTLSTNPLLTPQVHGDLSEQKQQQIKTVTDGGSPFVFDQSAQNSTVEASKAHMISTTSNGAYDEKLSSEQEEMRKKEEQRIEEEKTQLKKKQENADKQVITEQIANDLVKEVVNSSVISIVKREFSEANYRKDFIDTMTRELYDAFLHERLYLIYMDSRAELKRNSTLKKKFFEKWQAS

[5] = biological target: T1, Sac3 (residues 1-805), GST removed (S. cerevisiae); experiment: SEC-SAXS; on-line HPLC with Superdex 200 Increase 3.2/300, beamline BM29 (ESRF), 20 °C; mass from I(0) against a BSA standard; both purified
Sac3^M (S. cerevisiae) = biological target: T4, Sac3^M (S. cerevisiae) (UniProt P46674); experiment: as above
T4 sequence: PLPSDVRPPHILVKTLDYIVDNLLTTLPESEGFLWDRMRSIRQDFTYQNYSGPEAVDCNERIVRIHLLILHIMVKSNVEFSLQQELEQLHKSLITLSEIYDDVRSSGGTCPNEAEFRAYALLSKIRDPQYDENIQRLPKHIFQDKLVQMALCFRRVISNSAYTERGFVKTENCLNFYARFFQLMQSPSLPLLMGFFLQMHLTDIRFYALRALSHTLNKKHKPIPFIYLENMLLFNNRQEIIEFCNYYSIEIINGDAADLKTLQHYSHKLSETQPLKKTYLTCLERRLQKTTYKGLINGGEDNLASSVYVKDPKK

[6] = biological target: T1, Sac3 (residues 1-805), GST removed (S. cerevisiae); experiment: SEC; co-expressed complex after glutathione Sepharose, TEV and heparin; Superdex S200 26/60, 20 mM HEPES pH 8.0, 300 mM NaCl, 5 mM DTT; Coomassie-stained SDS-PAGE of fractions, identities by mass spectrometry; both purified

Measured: binding

B1: Thp1 (natural protein, S. cerevisiae, UniProt Q08231 1-455, looked up)
chain: MDMANQLLDELAHGNFSHLTLNLSQNGREIAILQKQLTGFDDKQLETFVEQHPAMPNDTRFKIMCTSFLNYARDVDPWSAWSSSDLIFEFYQCLINCLINDNAPHIEMLIPVATRETEFIINLAGKLDSFHLQLHTRSHQFLSHISSILSRLFNSIKPPRGNASSTNIPGKQRILLYLVNKLNNIYFRIESPQLCSNIFKNFQPKSMLAHFNEYQLDQQIEYRYLLGRYYLLNSQVHNAFVQFNEAFQSLLNLPLTNQAITRNGTRILNYMIPTGLILGKMVKWGPLRPFLSQETIDNWSVLYKHVRYGNIQGVSLWLRQNERHLCARQLLIVLLEKLPMVTYRNLIKTVIKSWTTEWGQNKLPYSLIERVLQLSIGPTFEDPGAQEITIYNGIHSPKNVENVLVTLINLGLLRANCFPQLQLCVVKKTTMIQEIVPPVNERITKMFPAHSHVLW
notes: Thp1, S. cerevisiae; The theoretical mass of 195 kDa for TREX-2^1-805 fits whole chains of the four small subunits; source: Sf9, baculovirus, co-expressed with GST-Sac3; in lysate and purified with the complex (glutathione Sepharose, heparin, SEC)
binds: [1] | [2] | [3] | [4] | [5] | Sac3^M (S. cerevisiae) | [6]

B2: Sem1 (natural protein, S. cerevisiae, UniProt O94742 1-89, looked up)
chain: MSTDVAAAQAQSKIDLTKKKNEEINKKSLEEDDEFEDFPIDTWANGETIKSNAVTQTNIWEENWDDVEVDDDFTNELKAELDRYKRENQ
notes: Sem1, S. cerevisiae; source: Sf9, baculovirus, co-expressed with GST-Sac3; in lysate and purified with the complex (glutathione Sepharose, heparin, SEC)
binds: [1] | [2] | [3] | [4] | [5] | Sac3^M (S. cerevisiae) | [6]

B3: Cdc31 (natural protein, S. cerevisiae, UniProt P06704 1-161, looked up)
chain: MSKNRSSLQSGPLNSELLEEQKQEIYEAFSLFDMNNDGFLDYHELKVAMKALGFELPKREILDLIDEYDSEGRHLMKYDDFYIVMGEKILKRDPLDEIKRAFQLFDDDHTGKISIKNLRRVAKELGETLTDEELRAMIEEFDLDGDGEINENEFIAICTDS
notes: Cdc31, S. cerevisiae; source: Sf9, baculovirus, co-expressed with GST-Sac3; in lysate and purified with the complex (glutathione Sepharose, heparin, SEC)
binds: [3] | [4] | [5] | [6]

B4: Sus1 (natural protein, S. cerevisiae, UniProt Q6WNK7 1-96, looked up)
chain: MTMDTAQLKSQIQQYLVESGNYELISNELKARLLQEGWVDKVKDLTKSEMNINESTNFTQILSTVEPKALEMVSDSTRETVLKQIREFLEEIVDTQ
notes: Sus1, S. cerevisiae; source: Sf9, baculovirus, co-expressed with GST-Sac3; in lysate and purified with the complex (glutathione Sepharose, heparin, SEC)
binds: [3] | [4] | [5] | [6]
